The values that follow are results of earlier work, collected in patent US20130338130A1 (priority 2009, published 2013).

For orientation: MIC means the lowest concentration found to suppress growth.

Read-outs that look alike come from different tables or passages of the source.

In the data set the test system is Staphylococcus aureus. As to conditions: Etest system, cited from earlier work.

In the case of `Cc1onc(-c2ccccc2)c1C(=O)N[C@@H]1C(=O)N2[C@@H]1SC(C)(C)[C@@H]2C(=O)O` [oxacillin, reference compound], the MIC entry (MRSA) is “at least 2 μg/ml” and the MIC (drug sensitive Staphylococcus aureus) was at most 2 µg/mL.
